According to US8519096B2, “Citrullinated peptides for diagnosing and prognosing rheumatoid arthritis” (Nestec S.A., priority 2009, dated 2013):

Tested on: anti-citrullinated protein antibodies
Test: Sensitivity and specificity of RA diagnosis using synthetic citrullinated fibrin and vimentin peptides
Set-up: species or system human
Conditions: Table 10; for Specificity (%): Normal Control; for Sensitivity (%): RA Patients

| Substance | Specificity (%) | Sensitivity (%) |
| --- | --- | --- |
| Biotin-GGGATRSSAVRL[Cit]SSVPGVRLLQDS-NH2 [VMT3] | 95 | 50 |
| Biotin-GGGAT[Cit]SSAVRLRSSVPGVRLLQDS-NH2 [VMT1] | 95 | 45 |

Non-standard residues stand in square brackets, D forms with d. *: point of attachment. Biotin = O=C1N[C@H]2[C@H](CS[C@H]2CCCCC(=O)*)N1; Cit = NC(=O)NCCC[C@H](N)C(=O)O
